Results: PubChem BioAssay AID1259246 (Broad Institute, 2017)
This list was built around the results that the source calls inconclusive (neither active nor inactive); the mix of calls is not that of the screen. The source made the active and inactive calls.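 How the source made its calls: active means valid dose-response fit whose half-maximal growth-inhibiting concentration is at or below a set limit above the top tested dose; inconclusive means flat fit with effect between 30 and 70%, or poor fit; inactive means half-maximal concentration above a set limit.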

Test: antibacterial activity against Clostridioides difficile – 10-point retest, dose response (AID 1259246)
Details: Clostridioides difficile clinical isolate growth, OD600, 24 h; at 120 µM (top of the series) unless noted

SMILES	activity change, negative = inhibition
C[C@H]1CN([C@@H](C)CO)C(=O)c2cccc(NC(=O)Nc3cccc4ccccc34)c2O[C@H]1CN(C)C(=O)Nc1ccc(C(F)(F)F)cc1	inconclusive: 61.4% [at 135 µM]
C[C@H]1CN([C@@H](C)CO)S(=O)(=O)c2ccc(C#CC3CCCC3)cc2O[C@@H]1CN(C)Cc1cncnc1	inconclusive: -9.05%
C[C@H](CO)N1C[C@H](C)[C@@H](CN(C)Cc2cccnc2)Oc2cc(/C=C/c3ccccc3)ccc2S1(=O)=O	inconclusive: 93.2% [at 135 µM]
C[C@H](CO)N1C[C@H](C)[C@H](CN(C)C(=O)NC2CCCCC2)Oc2c(NC(=O)Nc3ccccc3)cccc2C1=O	inconclusive: 76.7% [at 135 µM]
C[C@@H]1CN([C@H](C)CO)S(=O)(=O)c2ccc(C#CC3CCCCC3)cc2O[C@H]1CN(C)Cc1cccnc1	inactive: 18.8%
CO[C@H]1CN(C)C(=O)c2ccc(NC(=O)c3nc4ccccc4s3)cc2OC[C@H](C)N(Cc2ccncc2)C[C@@H]1C	inconclusive: -10%
CC(C)NC(=O)N(C)C[C@@H]1OCCCC[C@@H](C)Oc2ccc(NC(=O)Nc3ccc(C(F)(F)F)cc3)cc2C(=O)N([C@@H](C)CO)C[C@H]1C	inconclusive: 71.5%
CO[C@H]1CN(C)C(=O)c2cc(NC(=O)c3ccc(-c4ccccc4)cc3)ccc2OC[C@@H](C)NC[C@@H]1C	inactive: 30.6%
C[C@@H]1CN([C@H](C)CO)C(=O)c2cc(NC(=O)Nc3cccc4ccccc34)ccc2O[C@@H](C)CCCCO[C@@H]1CN(C)S(=O)(=O)c1ccc(F)cc1	inactive: 12%

Reformatted: two of the compounds above.
SMILES | activity change, negative = inhibition
C[C@H](CO)N1C[C@H](C)[C@H](CN(C)C(=O)NC2CCCCC2)Oc2c(NC(=O)Nc3ccccc3)cccc2C1=O | inconclusive: 76.7% [at 135 µM]
CO[C@H]1CN(C)C(=O)c2ccc(NC(=O)c3nc4ccccc4s3)cc2OC[C@H](C)N(Cc2ccncc2)C[C@@H]1C | inconclusive: -10%
